Values quoted from earlier work in patent publication US9546164B2 (GENENTECH, INC., priority 2013, dated 2017).

Settings: administered topically; cited from earlier work

CCN(CC)CC(=O)Nc1c(C)cccc1C [lidocaine]
plasma concentrations: about 1 μM
